Data as given in PubChem BioAssay AID743454 (Peter MacCallum Cancer Centre, 2014).
Here is an unselected part of about 18,000 deposited reagents. 450 of all reagents (2.5%) count as active. 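Single biological run; no consistent viability z cut-off exists, so the class columns, not z-scores, define the calls.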 No sequences are given here.

- Aim: 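Genes whose loss kills vorinostat-resistant colon cancer cells under vorinostat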 (primary screen)
- Cells: human HCT116-VR colon cancer cells, selected for vorinostat resistance
- Reagents: siRNA pool against human genes, 40 nM siRNA pool
- Duration: vorinostat for 24 h, read-out about 72 h after transfection
- Treatment: vorinostat at 2.5 µM final
- Measured: 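Cell viability by CellTiter-Fluor and caspase 3/7 activity by luminescence, each scaled to mock wells per plate, duplicates averaged, then robust z-scored over all plates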
- Direction: viability robust z-score: higher = more viable cells than screen typical; caspase robust z-score: higher = more caspase 3/7 activity than screen typical
- Active means: 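Hits are knock-downs in viability class RV1/RV2 or caspase class CA1/CA2, excluding ones that killed cells in the no-drug cell-count arm; hits then retested with single siRNAs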

| Gene | viability hit class | caspase hit class | viability robust z-score | caspase robust z-score | activity call |
| --- | --- | --- | --- | --- | --- |
| ASCC3 | no change | no change | -1.04 | 0.06 | inactive |
| STARD4 | no change | no change | 0.08 | 3.66 | inactive |
| OR7E24 | no change | no change | -0.3 | -0.6 | inactive |
| OCEL1 | no change | no change | -0.24 | 1.88 | inactive |
| FCN3 | no change | no change | 0.86 | 1.25 | inactive |
| OR5AR1 | no change | no change | -0.7 | 2.64 | inactive |
| AMDHD2 | no change | CA1 (caspase activation) | 0.46 | 6.67 | active |
| DBX1 | no change | CA2 (caspase activation) | -2.65 | 5.91 | active |
| SYTL5 | no change | no change | -0.46 | 1.32 | inactive |
| FBXO24 | no change | no change | 0.11 | -0.68 | inactive |
| PIM3 | no change | no change | 0.27 | -0.12 | inactive |
| ASMT | no change | no change | 0.24 | 3.07 | inactive |
| SRRM1 | no change | no change | -0.32 | -0.4 | inactive |
| EGF | no change | no change | 0.06 | 3.11 | inactive |
| KRT40 | no change | no change | 0.61 | 0.36 | inactive |
| UPK3B | no change | no change | -1.23 | 2.62 | inactive |
| DEFB136 | no change | no change | -0.02 | -1.14 | inactive |
| RBL1 | no change | no change | -0.24 | -0.62 | inactive |
| SOX7 | no change | no change | 0.04 | -0.36 | inactive |
| DUSP5 | no change | no change | -0.54 | -0.68 | inactive |
| SAMD5 | no change | no change | 1.62 | 0.39 | inactive |
| NT5DC3 | no change | no change | -1.19 | -1.06 | inactive |
| RPS29 | no change | no change | -4.52 | -1.58 | inactive |
| CIZ1 | no change | no change | -0.48 | 0.47 | inactive |
| MARCHF10 | no change | no change | -1.93 | 4.05 | inactive |
| C10orf62 | no change | no change | -0.02 | 0.84 | inactive |
| CCDC59 | no change | CA2 (caspase activation) | -1.27 | 5.75 | active |
| LANCL2 | no change | no change | 0.44 | 2.98 | inactive |
| RAB3GAP1 | no change | no change | 0.1 | -0.68 | inactive |
| SCAMP4 | no change | no change | 0.82 | 2.5 | inactive |
| MRPS18C | no change | no change | -0.1 | 4.27 | inactive |
| PPP1R12B | no change | no change | -1.41 | -0.66 | inactive |
| IL33 | no change | no change | -0.26 | -0.49 | inactive |
| PDE3B | no change | no change | -0.45 | 0.76 | inactive |
| TXNL1 | no change | no change | 0.97 | 0.28 | inactive |
| H2AC17 | no change | no change | 0.48 | 0.29 | inactive |
| CNGA1 | RV2 (reduced viability) | no change | -4.02 | 1.06 | active |
| OR2T12 | no change | no change | -1.19 | 3.44 | inactive |
| NCAPG2 | no change | no change | -0.32 | 1.55 | inactive |
| TESK1 | no change | no change | -1.19 | 3.49 | inactive |
| RFTN1 | no change | no change | -0.24 | 1.84 | inactive |
| AKNAD1 | no change | no change | -0.26 | -0.96 | inactive |
| ZNF239 | no change | no change | 0.22 | 0.11 | inactive |
| FAM120A | no change | no change | -0.34 | -0.2 | inactive |
| FAHD2B | no change | no change | -0.55 | 2.86 | inactive |
| TLR9 | no change | no change | -0.66 | -0.96 | inactive |
| CAP1 | no change | no change | -0.12 | -0.59 | inactive |
| PRR5 | no change | no change | -0.5 | 0.98 | inactive |
| IRF2BP2 | no change | no change | -0.44 | 2.86 | inactive |
| FBLN1 | no change | no change | 1.31 | -0.56 | inactive |
| TBC1D25 | no change | no change | 0.08 | 0.26 | inactive |
| PSMD12 | RV2 (reduced viability) | no change | -3.53 | 3.06 | active |
| SLC38A11 | no change | no change | -1.83 | 1.06 | inactive |
| SNRPD3 | no change | no change | -3.25 | -0.65 | inactive |
| UQCR11 | no change | no change | 0.46 | -0.9 | inactive |
| PDC | no change | no change | 0.11 | 0.02 | inactive |
| LCN12 | no change | no change | 0.8 | 0.8 | inactive |
